These are yes or no findings as the source states them, for the method shown. Binding seen in cells or lysates may run through a third protein. A yes stands for co-enrichment or nearness to the bait. Other partners may have been found. Where a sequence is shown, tags or fusion partners need not be part of it.
T1: hMCC-SBP-6×His (human MCC isoform 1 with a C-terminal SBP-6×His tag) (human) (UniProt P23508)
T1 sequence: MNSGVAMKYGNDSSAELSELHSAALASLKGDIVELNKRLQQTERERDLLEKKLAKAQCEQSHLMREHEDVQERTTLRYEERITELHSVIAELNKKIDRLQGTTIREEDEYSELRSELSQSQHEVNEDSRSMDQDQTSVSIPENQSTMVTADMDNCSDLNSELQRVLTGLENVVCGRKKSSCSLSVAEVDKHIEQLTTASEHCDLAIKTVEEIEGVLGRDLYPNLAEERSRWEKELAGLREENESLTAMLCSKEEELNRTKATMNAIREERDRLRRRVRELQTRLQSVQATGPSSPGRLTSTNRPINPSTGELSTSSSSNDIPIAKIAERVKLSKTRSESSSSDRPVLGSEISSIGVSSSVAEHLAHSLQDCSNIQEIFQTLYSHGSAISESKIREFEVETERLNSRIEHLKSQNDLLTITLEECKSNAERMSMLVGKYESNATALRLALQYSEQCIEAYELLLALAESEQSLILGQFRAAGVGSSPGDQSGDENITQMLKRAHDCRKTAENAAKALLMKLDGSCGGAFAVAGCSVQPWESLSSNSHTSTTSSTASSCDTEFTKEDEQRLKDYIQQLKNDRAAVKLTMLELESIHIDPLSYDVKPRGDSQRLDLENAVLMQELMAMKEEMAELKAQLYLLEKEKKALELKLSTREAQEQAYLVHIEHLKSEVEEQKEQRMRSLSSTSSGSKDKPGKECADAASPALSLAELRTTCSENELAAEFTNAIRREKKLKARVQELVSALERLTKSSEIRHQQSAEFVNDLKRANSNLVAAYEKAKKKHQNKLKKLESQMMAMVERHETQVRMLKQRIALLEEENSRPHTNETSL

The chains behind the UniProt entries cited, without tags or fusion partners. Residues count along the entry.
UniProt P09874: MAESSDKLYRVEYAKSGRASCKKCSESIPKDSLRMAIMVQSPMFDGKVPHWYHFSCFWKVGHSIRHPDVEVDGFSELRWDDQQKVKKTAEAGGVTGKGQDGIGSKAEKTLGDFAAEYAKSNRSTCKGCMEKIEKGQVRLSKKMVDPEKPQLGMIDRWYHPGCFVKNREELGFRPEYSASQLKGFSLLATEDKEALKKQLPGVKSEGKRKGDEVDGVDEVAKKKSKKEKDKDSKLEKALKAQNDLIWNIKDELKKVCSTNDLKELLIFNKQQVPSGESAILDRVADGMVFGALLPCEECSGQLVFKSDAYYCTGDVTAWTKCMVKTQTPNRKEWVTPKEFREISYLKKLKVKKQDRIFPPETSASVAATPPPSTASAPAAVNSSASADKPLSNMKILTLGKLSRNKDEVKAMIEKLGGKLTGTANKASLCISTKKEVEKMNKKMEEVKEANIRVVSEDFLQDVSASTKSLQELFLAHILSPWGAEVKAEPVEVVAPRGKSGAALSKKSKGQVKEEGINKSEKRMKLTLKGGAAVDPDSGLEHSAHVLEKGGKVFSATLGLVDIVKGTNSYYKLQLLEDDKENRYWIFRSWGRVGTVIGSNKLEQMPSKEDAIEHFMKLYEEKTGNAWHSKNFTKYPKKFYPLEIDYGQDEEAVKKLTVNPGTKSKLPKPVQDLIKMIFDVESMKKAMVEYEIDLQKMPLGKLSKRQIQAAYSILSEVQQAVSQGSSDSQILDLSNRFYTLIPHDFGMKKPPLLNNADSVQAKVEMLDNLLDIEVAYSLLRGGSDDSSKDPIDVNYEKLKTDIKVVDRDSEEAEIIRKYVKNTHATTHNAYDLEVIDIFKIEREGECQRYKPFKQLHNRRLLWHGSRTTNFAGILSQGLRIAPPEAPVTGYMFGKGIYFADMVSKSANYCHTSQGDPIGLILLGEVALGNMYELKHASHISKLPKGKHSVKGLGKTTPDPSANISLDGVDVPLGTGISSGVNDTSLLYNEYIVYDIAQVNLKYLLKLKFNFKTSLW
UniProt P12235: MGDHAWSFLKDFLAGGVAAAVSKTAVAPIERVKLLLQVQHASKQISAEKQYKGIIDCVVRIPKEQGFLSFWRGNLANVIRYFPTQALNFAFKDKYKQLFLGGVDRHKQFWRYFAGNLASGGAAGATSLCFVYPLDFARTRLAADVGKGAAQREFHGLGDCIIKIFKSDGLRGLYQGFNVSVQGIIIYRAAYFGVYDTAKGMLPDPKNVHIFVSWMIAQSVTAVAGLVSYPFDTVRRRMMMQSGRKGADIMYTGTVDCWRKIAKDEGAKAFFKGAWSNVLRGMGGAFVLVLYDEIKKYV
UniProt P40939, residues 37-763: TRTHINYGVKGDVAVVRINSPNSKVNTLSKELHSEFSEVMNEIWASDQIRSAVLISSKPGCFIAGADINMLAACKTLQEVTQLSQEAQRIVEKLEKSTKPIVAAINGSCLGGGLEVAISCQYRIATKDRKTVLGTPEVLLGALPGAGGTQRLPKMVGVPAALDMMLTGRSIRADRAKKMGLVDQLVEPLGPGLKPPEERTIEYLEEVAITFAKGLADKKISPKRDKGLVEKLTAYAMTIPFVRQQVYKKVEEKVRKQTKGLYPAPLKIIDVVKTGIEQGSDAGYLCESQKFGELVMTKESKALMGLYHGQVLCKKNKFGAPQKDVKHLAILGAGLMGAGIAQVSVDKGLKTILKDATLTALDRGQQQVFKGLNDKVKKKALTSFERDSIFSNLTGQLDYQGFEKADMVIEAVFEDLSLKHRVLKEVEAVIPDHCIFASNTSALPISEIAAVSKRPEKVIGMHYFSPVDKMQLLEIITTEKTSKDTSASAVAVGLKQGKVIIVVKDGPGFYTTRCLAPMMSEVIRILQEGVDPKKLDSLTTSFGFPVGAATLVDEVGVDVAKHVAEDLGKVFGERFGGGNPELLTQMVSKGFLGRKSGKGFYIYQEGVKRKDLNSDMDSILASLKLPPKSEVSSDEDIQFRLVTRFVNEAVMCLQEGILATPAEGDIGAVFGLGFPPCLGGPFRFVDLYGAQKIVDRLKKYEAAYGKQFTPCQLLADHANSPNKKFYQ


Key:
[1] = target: T1, hMCC-SBP-6×His (human MCC isoform 1 with a C-terminal SBP-6×His tag) (human); assay: affinity purification with mass spectrometry; whole cell lysates of 8226 cells with hMCC-SBP-6×His; streptavidin-sepharose beads; LC-MS/MS of gel slices; FLAG-hMCC cells as negative control
[2] = target: T1, hMCC-SBP-6×His (human MCC isoform 1 with a C-terminal SBP-6×His tag) (human); assay: affinity purification with mass spectrometry; lysates of purified mitochondria of 8226 cells with hMCC-SBP-6×His; streptavidin-sepharose beads; LC-MS/MS of gel slices; FLAG-hMCC cells as negative control
[3] = target: T1, hMCC-SBP-6×His (human MCC isoform 1 with a C-terminal SBP-6×His tag) (human); assay: affinity purification with mass spectrometry; whole cell lysates of 8226 cells with hMCC-SBP-6×His; streptavidin-sepharose beads; LC-MS/MS of gel slices; FLAG-hMCC cells as negative control; remark: listed apart in the source

Molecule	binding [1]	binding [2]	binding [3]
Poly [ADP-ribose] polymerase 1 (from UniProt P09874 1-1014)	binds	binds	
ADT1 (from UniProt P12235 1-298)		binds	

Other lines, results leading:

binding [1]	binding [2]	binding [3]	Molecule
	binds		ECHA (from UniProt P40939 37-763)
	binds		ADT3 (protein, UniProt P12236 1-298) MTEQAISFAKDFLAGGIAAAISKTAVAPIERVKLLLQVQHASKQIAADKQYKGIVDCIVRIPKEQGVLSFWRGNLANVIRYFPTQALNFAFKDKYKQIFLGGVDKHTQFWRYFAGNLASGGAAGATSLCFVYPLDFARTRLAADVGKSGTEREFRGLGDCLVKITKSDGIRGLYQGFSVSVQGIIIYRAAYFGVYDTAKGMLPDPKNTHIVVSWMIAQTVTAVAGVVSYPFDTVRRRMMMQSGRKGADIMYTGTVDCWRKIFRDEGGKAFFKGAWSNVLRGMGGAFVLVLYDELKKVI
	binds	binds	MCC isoform 2 (1019 aa) (protein, UniProt P23508-2 1-1019) MMAAAAAAAAGSSSSGGGGGGSGSSSSSSDTSSTGEEERMRRLFQTCDGDGDGYISRNDLLMVCRQLNMEESVAEIMNQLGADENGKISFQDFTRCRMQLVREIRKEEVDLSAKSDNSCTKKLRDRIASWPTSSDNSLGALSAARESWEYDSGARDLQSPDVQSQSALQKLLEYGGSSLHQQAALHKLLTQSPHIGNSVGGSYLELANTLHSAALASLKGDIVELNKRLQQTERERDLLEKKLAKAQCEQSHLMREHEDVQERTTLRYEERITELHSVIAELNKKIDRLQGTTIREEDEYSELRSELSQSQHEVNEDSRSMDQDQTSVSIPENQSTMVTADMDNCSDLNSELQRVLTGLENVVCGRKKSSCSLSVAEVDKHIEQLTTASEHCDLAIKTVEEIEGVLGRDLYPNLAEERSRWEKELAGLREENESLTAMLCSKEEELNRTKATMNAIREERDRLRRRVRELQTRLQSVQATGPSSPGRLTSTNRPINPSTGELSTSSSSNDIPIAKIAERVKLSKTRSESSSSDRPVLGSEISSIGVSSSVAEHLAHSLQDCSNIQEIFQTLYSHGSAISESKIREFEVETERLNSRIEHLKSQNDLLTITLEECKSNAERMSMLVGKYESNATALRLALQYSEQCIEAYELLLALAESEQSLILGQFRAAGVGSSPGDQSGDENITQMLKRAHDCRKTAENAAKALLMKLDGSCGGAFAVAGCSVQPWESLSSNSHTSTTSSTASSCDTEFTKEDEQRLKDYIQQLKNDRAAVKLTMLELESIHIDPLSYDVKPRGDSQRLDLENAVLMQELMAMKEEMAELKAQLYLLEKEKKALELKLSTREAQEQAYLVHIEHLKSEVEEQKEQRMRSLSSTSSGSKDKPGKECADAASPALSLAELRTTCSENELAAEFTNAIRREKKLKARVQELVSALERLTKSSEIRHQQSAEFVNDLKRANSNLVAAYEKAKKKHQNKLKKLESQMMAMVERHETQVRMLKQRIALLEEENSRPHTNETSL

Reference: PMC4172902
